Assay results published in doi:10.1101/437814.
No constants are given. Whether binding was seen depends on the method and setting. In cells and extracts the contact can be indirect. Some binding calls cover weakened binding; strength is not graded here.

Molecular target: T1, Signal Transducer and Activator of Transcription 1 (human (endogenous in HEK293)), P42224
T1 chain: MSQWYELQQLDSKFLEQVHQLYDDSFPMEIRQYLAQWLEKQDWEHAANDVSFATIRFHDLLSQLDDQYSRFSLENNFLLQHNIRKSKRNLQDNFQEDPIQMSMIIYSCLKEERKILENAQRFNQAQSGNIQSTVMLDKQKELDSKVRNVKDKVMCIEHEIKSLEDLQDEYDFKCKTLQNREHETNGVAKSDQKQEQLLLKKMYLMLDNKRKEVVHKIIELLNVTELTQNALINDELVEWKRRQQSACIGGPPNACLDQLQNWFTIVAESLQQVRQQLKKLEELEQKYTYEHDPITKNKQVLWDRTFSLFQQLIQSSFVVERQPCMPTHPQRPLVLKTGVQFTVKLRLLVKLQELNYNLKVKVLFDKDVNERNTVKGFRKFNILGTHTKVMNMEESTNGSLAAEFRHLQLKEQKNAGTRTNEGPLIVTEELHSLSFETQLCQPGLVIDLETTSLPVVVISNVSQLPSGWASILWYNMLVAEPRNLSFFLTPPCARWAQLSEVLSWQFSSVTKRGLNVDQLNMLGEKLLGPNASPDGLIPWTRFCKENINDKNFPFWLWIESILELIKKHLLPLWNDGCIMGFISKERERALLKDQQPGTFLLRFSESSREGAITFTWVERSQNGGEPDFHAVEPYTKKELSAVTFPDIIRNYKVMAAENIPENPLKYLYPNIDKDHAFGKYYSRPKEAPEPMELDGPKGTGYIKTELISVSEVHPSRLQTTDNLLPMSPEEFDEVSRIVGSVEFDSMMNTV
Experiment: cross-linking
Conditions: remark: other sources report otherwise

- binding: binds
B1: Signal Transducer and Activator of Transcription 1, P42224 1-750 (protein)
chain: T1 chain
